PubChem BioAssay AID1224826, NIAID, 2016
The whole screen tested about 17,000 reagents; this is an unselected part. Over the whole deposit, about 1,110 (6.6%) are marked active. 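Active means lowered or raised reporter signal; replicate intensities are raw and not normalised per plate.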 Further read-outs or replicates are left out here.

- Test: 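Genes that change LPS-induced Tnf promoter activity in mouse macrophages when knocked down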 (primary screen)
- Cells: RAW264.7 G9 macrophages from mouse bearing reporters for p65 (GFP) and the Tnf promoter (mCherry)
- Reagents: siRNA pool against mouse genes, 100 nM
- Timing: 16 h of LPS stimulation, after 2 days of siRNA transfection
- Challenge: bacterial lipopolysaccharide (Salmonella minnesota R595), 10 ng/ml
- Measured: 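Imaged Tnf reporter mCherry in nuclei, minus background, normalised per plate to the median and expressed as robust z-scores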
- Scale: Tnf reporter robust z-score: higher = stronger Tnf promoter reporter signal after LPS
- Active means: 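a well counts as active at a score of -1.3 or below (Tlr4 knock-down control median) or above 3 (raised signal); controls and wells holding fewer than 50 cells are excluded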
- Meaning of the calls: active = Tnf reporter clearly lowered or raised; inactive = no clear change in Tnf reporter

Casr [SID315465778] | Tnf reporter robust z-score = -0.47; fewer than 50 cells in well = enough cells in well; activity call = inactive
Ovgp1 [SID315465959] | fewer than 50 cells in well = fewer than 50 cells per well; well left out of calls; activity call = inactive
Atp5po [SID315470673] | Tnf reporter robust z-score = -0.7; fewer than 50 cells in well = enough cells in well; activity call = inactive
Snrnp27 [SID315472545] | Tnf reporter robust z-score = -1.47; fewer than 50 cells in well = enough cells in well; activity call = active
Cse1l [SID315476927] | Tnf reporter robust z-score = -1.47; fewer than 50 cells in well = enough cells in well; activity call = active
Sbds [SID315472598] | Tnf reporter robust z-score = -0.91; fewer than 50 cells in well = enough cells in well; activity call = inactive
Haspin [SID315467048] | Tnf reporter robust z-score = 0.61; fewer than 50 cells in well = enough cells in well; activity call = inactive
Jkamp [SID315476458] | Tnf reporter robust z-score = 4.77; fewer than 50 cells in well = enough cells in well; activity call = active
Ids [SID315467373] | Tnf reporter robust z-score = 0.09; fewer than 50 cells in well = enough cells in well; activity call = inactive
Dnph1 [SID315481769] | Tnf reporter robust z-score = 0.93; fewer than 50 cells in well = enough cells in well; activity call = inactive
Errfi1 [SID315474876] | Tnf reporter robust z-score = -1.15; fewer than 50 cells in well = enough cells in well; activity call = inactive

Continued, starting with the last 2 of the part before.
Dnph1 [SID315481769] | Tnf reporter robust z-score = 0.93; fewer than 50 cells in well = enough cells in well; activity call = inactive
Errfi1 [SID315474876] | Tnf reporter robust z-score = -1.15; fewer than 50 cells in well = enough cells in well; activity call = inactive
Ap4b1 [SID315473061] | Tnf reporter robust z-score = -0.84; fewer than 50 cells in well = enough cells in well; activity call = inactive
Ap4b1 [SID315473062] | Tnf reporter robust z-score = 0.04; fewer than 50 cells in well = enough cells in well; activity call = inactive
Paqr3 [SID315478895] | Tnf reporter robust z-score = 1.22; fewer than 50 cells in well = enough cells in well; activity call = inactive
Miga1 [SID315477947] | Tnf reporter robust z-score = -0.79; fewer than 50 cells in well = enough cells in well; activity call = inactive
Slc7a7 [SID315469314] | Tnf reporter robust z-score = 1.12; fewer than 50 cells in well = enough cells in well; activity call = inactive
Lin28a [SID315475839] | Tnf reporter robust z-score = -0.38; fewer than 50 cells in well = enough cells in well; activity call = inactive
Atp6ap1 [SID315471232] | Tnf reporter robust z-score = -1.08; fewer than 50 cells in well = enough cells in well; activity call = inactive
Kras [SID315467680] | Tnf reporter robust z-score = -0.31; fewer than 50 cells in well = enough cells in well; activity call = inactive
Rdh14 [SID315476471] | Tnf reporter robust z-score = 1.98; fewer than 50 cells in well = enough cells in well; activity call = inactive
Spsb1 [SID315475020] | Tnf reporter robust z-score = -0.35; fewer than 50 cells in well = enough cells in well; activity call = inactive
